Laboratory results: PubChem BioAssay (NCATS)
Inconclusive means that the source gave no clear call. Such entries were picked first, then a sample of the others. For some assays here: Where the call is inconclusive, the potency comes from a doubtful curve fit. Active and inactive are the calls of the source. Unless noted, calls follow the shape of the dose curve; as a rule, active = well fitted inhibition curve with a large enough effect; inconclusive = small, poorly fitted or top-dose-only effect; inactive = flat fitted curve, though single readings scatter.

By UniProt entry, the sequences of proteins in these tests, tags left out. Where a name states a change or a piece, a line headed by the entry shows the natural chain unless it says otherwise.
UniProt O94782: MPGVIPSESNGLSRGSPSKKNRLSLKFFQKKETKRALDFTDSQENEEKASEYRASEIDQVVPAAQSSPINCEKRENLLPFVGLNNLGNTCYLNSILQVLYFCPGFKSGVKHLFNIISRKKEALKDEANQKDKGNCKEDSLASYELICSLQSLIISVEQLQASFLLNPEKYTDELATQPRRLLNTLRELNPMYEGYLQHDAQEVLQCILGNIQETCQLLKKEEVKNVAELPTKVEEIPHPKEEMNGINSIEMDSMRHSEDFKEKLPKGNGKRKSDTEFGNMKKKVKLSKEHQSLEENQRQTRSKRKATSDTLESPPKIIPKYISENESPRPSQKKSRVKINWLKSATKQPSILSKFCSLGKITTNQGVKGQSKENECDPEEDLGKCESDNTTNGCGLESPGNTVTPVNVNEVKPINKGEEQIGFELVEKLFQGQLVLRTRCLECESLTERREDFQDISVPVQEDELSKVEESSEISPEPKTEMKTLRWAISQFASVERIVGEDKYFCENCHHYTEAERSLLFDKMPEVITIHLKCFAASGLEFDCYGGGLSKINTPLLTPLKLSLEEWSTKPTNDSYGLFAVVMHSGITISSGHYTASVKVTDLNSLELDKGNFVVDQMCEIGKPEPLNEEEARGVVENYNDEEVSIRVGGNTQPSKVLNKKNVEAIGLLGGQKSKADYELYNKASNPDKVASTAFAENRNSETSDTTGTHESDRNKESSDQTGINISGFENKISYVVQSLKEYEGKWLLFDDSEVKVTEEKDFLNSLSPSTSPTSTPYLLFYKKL

Key:
[1] = Stat Signaling Pathway (AID 446; active = well fitted curve in either direction with a large enough effect, not every such curve was filed as active; inconclusive = small, poorly fitted or top-dose-only effect, or another doubt;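 also: ME-180 cervical cancer cells given 40 pM IL-6 alongside compound; SIE-controlled beta-lactamase reporter measured as 460/530 nm FRET emission ratio; % is scaled to controls: 0 for no effect and ±100 for the full control effect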); details: ME-180 SIE beta-lactamase reporter, IL-6 stimulated, 5 h; at 7.69 µM (top of the series) unless noted
Summary of the method: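 FRET read-out (405 nm excitation, 460/530 nm emission) of a beta-lactamase reporter under a STAT-inducible element in ME-180 cervical carcinoma cells. Cells with compound receive 40 pM IL-6 for 5 h. Values are normalised to AC90 stimulation and AC90 JAK-inhibitor controls.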

[2] = qHTS Assay for Identification of Small Molecule Agonists for Hypoxia Response Element Signaling Pathway (AID 914; active = well fitted activation curve with a large enough effect in the signal ratio, with a control signal flat, not every such curve was filed as active; inconclusive = small, poorly fitted or top-dose-only effect, or effect the other way, or a change in a side signal; the % refers to the signal ratio; also: potency is read from the fitted curve at half-maximal effect); details: ME-180 (cervical carcinoma) HRE-bla reporter, beta-lactamase ratio, CoCl2, 17 h; activation: stronger effect = higher value
Summary of the method: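 Reporter activity (beta-lactamase, CCF4 460nm/530nm ratio) in HRE-bla ME-180 cells is recorded after 17 h compound exposure with EC50 CoCl2 at 37 degrees Celsius. AC50 values come from titration data.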

[3] = qHTS Assay for Lipid Storage Modulators (AID 1519; calls by dose curve; also: % is scaled to controls: 0 for no effect and ±100 for the full control effect); details: Drosophila S3 cells, BODIPY lipid droplet/cell ratio, laser cytometry, cells loaded with oleic acid; activity change, negative = inhibition: at 57.5 µM (top of the series) unless noted
Summary of the method: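 Cells seeded at 5,000 per well were treated with compounds over a concentration series and loaded with oleic acid (400 uM, as added). Lipid droplet fluorescence (488 nm excitation, 500-530 nm channel) was read by laser-scanning cytometry and normalized to 20 uM Triacsin C.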

[4] = biological target: Ubiquitin carboxyl-terminal hydrolase 1 (Homo sapiens) (UniProt O94782); experiment: Inhibitors of USP1/UAF1: Pilot qHTS (AID 504865); also: potency is read from the fitted curve at half-maximal effect; nearly all actives have a fitted effect of over 35% in size
Summary of the method: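 Kinetic fluorescence assay: 1nM USP1/UAF1, 15 min compound preincubation, then 150nM Ub-Rho; 480/540 nm.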

3D7 = experiment: qHTS profiling for inhibitors of Plasmodium falciparum proliferation (AID 504749); also: nearly all actives have a fitted effect of over 60% in size; also: potency is read from the fitted curve at half-maximal effect;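 as to activity, negative = inhibition: 0% = DMSO vehicle and full inhibition = artemisinin control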; details: P. falciparum in erythrocytes, SYBR Green DNA, 72 h; series mostly up to 28.7 µM
Summary of the method: (§1)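 Fluorescence of SYBR Green-bound parasite DNA, read at 485/535 nm, served as the growth measure. Infected erythrocytes were cultured with compound 72 h; artemisinin (0.29 uM) and DMSO wells defined the normalization range.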

7G8 = experiment: as above; details: P. falciparum in erythrocytes, SYBR Green DNA, 72 h; series mostly up to 28.7 µM
Summary of the method: as §1

AS120 = experiment: as above; details: P. falciparum in erythrocytes, SYBR Green DNA, 72 h; series mostly up to 28.7 µM
Summary of the method: as §1

ATS189 = experiment: as above; details: P. falciparum in erythrocytes, SYBR Green DNA, 72 h; series mostly up to 28.7 µM
Summary of the method: as §1

ATS95 = experiment: as above; details: P. falciparum in erythrocytes, SYBR Green DNA, 72 h; series mostly up to 28.7 µM
Summary of the method: as §1

CP191 = experiment: as above; details: P. falciparum in erythrocytes, SYBR Green DNA, 72 h; series mostly up to 28.7 µM
Summary of the method: as §1

CP194 = experiment: as above; details: P. falciparum in erythrocytes, SYBR Green DNA, 72 h; series mostly up to 28.7 µM
Summary of the method: as §1

CP203 = experiment: as above; details: P. falciparum in erythrocytes, SYBR Green DNA, 72 h; series mostly up to 28.7 µM
Summary of the method: as §1

CP215 = experiment: as above; details: P. falciparum in erythrocytes, SYBR Green DNA, 72 h; series mostly up to 28.7 µM
Summary of the method: as §1

CP217 = experiment: as above; details: P. falciparum in erythrocytes, SYBR Green DNA, 72 h; series mostly up to 28.7 µM
Summary of the method: as §1

CP237 = experiment: as above; details: P. falciparum in erythrocytes, SYBR Green DNA, 72 h; series mostly up to 28.7 µM
Summary of the method: as §1

CP238 = experiment: as above; details: P. falciparum in erythrocytes, SYBR Green DNA, 72 h; series mostly up to 28.7 µM
Summary of the method: as §1

CP247 = experiment: as above; details: P. falciparum in erythrocytes, SYBR Green DNA, 72 h; series mostly up to 28.7 µM
Summary of the method: as §1

CP250 = experiment: as above; details: P. falciparum in erythrocytes, SYBR Green DNA, 72 h; series mostly up to 28.7 µM
Summary of the method: as §1

CP256 = experiment: as above; details: P. falciparum in erythrocytes, SYBR Green DNA, 72 h; series mostly up to 28.7 µM
Summary of the method: as §1

CP260 = experiment: as above; details: P. falciparum in erythrocytes, SYBR Green DNA, 72 h; series mostly up to 28.7 µM
Summary of the method: as §1

CP265 = experiment: as above; details: P. falciparum in erythrocytes, SYBR Green DNA, 72 h; series mostly up to 28.7 µM
Summary of the method: as §1

CP268 = experiment: as above; details: P. falciparum in erythrocytes, SYBR Green DNA, 72 h; series mostly up to 28.7 µM
Summary of the method: as §1

CP269 = experiment: as above; details: P. falciparum in erythrocytes, SYBR Green DNA, 72 h; series mostly up to 28.7 µM
Summary of the method: as §1

CP286 = experiment: as above; details: P. falciparum in erythrocytes, SYBR Green DNA, 72 h; series mostly up to 28.7 µM
Summary of the method: as §1

CP291 = experiment: as above; details: P. falciparum in erythrocytes, SYBR Green DNA, 72 h; series mostly up to 28.7 µM
Summary of the method: as §1

CP305 = experiment: as above; details: P. falciparum in erythrocytes, SYBR Green DNA, 72 h; series mostly up to 28.7 µM
Summary of the method: as §1

CP325 = experiment: as above; details: P. falciparum in erythrocytes, SYBR Green DNA, 72 h; series mostly up to 28.7 µM
Summary of the method: as §1

CP335 = experiment: as above; details: P. falciparum in erythrocytes, SYBR Green DNA, 72 h; series mostly up to 28.7 µM
Summary of the method: as §1

DFO2036 = experiment: as above; details: P. falciparum in erythrocytes, SYBR Green DNA, 72 h; series mostly up to 28.7 µM
Summary of the method: as §1

DIV17 = experiment: as above; details: P. falciparum in erythrocytes, SYBR Green DNA, 72 h; series mostly up to 28.7 µM
Summary of the method: as §1

DIV30 = experiment: as above; details: P. falciparum in erythrocytes, SYBR Green DNA, 72 h; series mostly up to 28.7 µM
Summary of the method: as §1

Dd2 = experiment: as above; details: P. falciparum in erythrocytes, SYBR Green DNA, 72 h; series mostly up to 28.7 µM
Summary of the method: as §1

ECU = experiment: as above; details: P. falciparum in erythrocytes, SYBR Green DNA, 72 h; series mostly up to 28.7 µM
Summary of the method: as §1

FAB9 = experiment: as above; details: P. falciparum in erythrocytes, SYBR Green DNA, 72 h; series mostly up to 28.7 µM
Summary of the method: as §1

GB4 = experiment: as above; details: P. falciparum in erythrocytes, SYBR Green DNA, 72 h; series mostly up to 28.7 µM
Summary of the method: as §1

ICS = experiment: as above; details: P. falciparum in erythrocytes, SYBR Green DNA, 72 h; series mostly up to 28.7 µM
Summary of the method: as §1

JCK = experiment: as above; details: P. falciparum in erythrocytes, SYBR Green DNA, 72 h; series mostly up to 12.8 µM
Summary of the method: as §1

N140 = experiment: as above; details: P. falciparum in erythrocytes, SYBR Green DNA, 72 h; series mostly up to 28.7 µM
Summary of the method: as §1

P93_24 = experiment: as above; details: P. falciparum in erythrocytes, SYBR Green DNA, 72 h; series mostly up to 28.7 µM
Summary of the method: as §1

P94_40 = experiment: as above; details: P. falciparum in erythrocytes, SYBR Green DNA, 72 h; series mostly up to 28.7 µM
Summary of the method: as §1

PAD = experiment: as above; details: P. falciparum in erythrocytes, SYBR Green DNA, 72 h; series mostly up to 28.7 µM
Summary of the method: as §1

PC15 = experiment: as above; details: P. falciparum in erythrocytes, SYBR Green DNA, 72 h; series mostly up to 28.7 µM
Summary of the method: as §1

PC26 = experiment: as above; details: P. falciparum in erythrocytes, SYBR Green DNA, 72 h; series mostly up to 28.7 µM
Summary of the method: as §1

PC49 = experiment: as above; details: P. falciparum in erythrocytes, SYBR Green DNA, 72 h; activity, negative = inhibition: at 28.7 µM (top of the series)
Summary of the method: as §1

SC27B = experiment: as above; details: P. falciparum in erythrocytes, SYBR Green DNA, 72 h; series mostly up to 28.7 µM
Summary of the method: as §1

TAB109 = experiment: as above; details: P. falciparum in erythrocytes, SYBR Green DNA, 72 h; series mostly up to 28.7 µM
Summary of the method: as §1

TAB113 = experiment: as above; details: P. falciparum in erythrocytes, SYBR Green DNA, 72 h; series mostly up to 28.7 µM
Summary of the method: as §1

CCC(=O)OCC(=O)[C@@]1(OC(=O)CC)[C@H](C)C[C@@H]2[C@@H]3[C@H]([C@@H](O)C[C@@]21C)[C@]1(C)C=CC(=O)C=C1C[C@@H]3Cl
inactive: Potency [3] | Potency (CP194)
inconclusive: activity, negative = inhibition [1] -32.7% [inhibitor] [at 17.2 µM] | Potency [2] 0.02 µM [inhibitor, full curve] | Potency [4] 35.5 µM [inhibitor, partial curve, poor fit] | Potency (3D7) 10 µM [inhibitor, single point] | Potency (AS120) 10 µM [inhibitor, single point] | Potency (ATS189) 10 µM [inhibitor, single point] | Potency (ATS95) 10 µM [inhibitor, single point] | Potency (CP191) 8.91 µM [inhibitor, single point] | Potency (CP203) 8.09 µM [inhibitor, single point] | Potency (CP215) 5.73 µM [inhibitor, single point] | Potency (CP217) 7.08 µM [inhibitor, single point] | Potency (CP237) 7.08 µM [inhibitor, single point] | Potency (CP238) 10 µM [inhibitor, single point] | Potency (CP247) 7.08 µM [inhibitor, single point] | Potency (CP250) 7.94 µM [inhibitor, single point] | Potency (CP256) 7.08 µM [inhibitor, single point] | Potency (CP265) 5.01 µM [inhibitor, single point] | Potency (CP268) 8.09 µM [inhibitor, single point] | Potency (CP269) 6.42 µM [inhibitor, single point] | Potency (CP286) 10 µM [inhibitor, single point] | Potency (CP291) 3.22 µM [inhibitor, single point] | Potency (CP305) 6.42 µM [inhibitor, single point] | Potency (CP325) 8.09 µM [inhibitor, single point] | Potency (CP335) 8.09 µM [inhibitor, single point] | Potency (DFO2036) 10 µM [inhibitor, single point] | Potency (DIV17) 5.73 µM [inhibitor, single point] | Potency (DIV30) 8.09 µM [inhibitor, single point] | Potency (Dd2) 7.08 µM [inhibitor, single point] | Potency (ECU) 7.08 µM [inhibitor, single point] | Potency (FAB9) 10 µM [inhibitor, single point] | Potency (GB4) 5.1 µM [inhibitor, single point] | Potency (JCK) 10 µM [inhibitor, single point] | Potency (N140) 10 µM [inhibitor, single point] | Potency (P93_24) 10 µM [inhibitor, single point] | Potency (P94_40) 7.94 µM [inhibitor, single point] | Potency (PAD) 7.08 µM [inhibitor, single point] | Potency (PC15) 10 µM [inhibitor, single point] | Potency (PC26) 6.42 µM [inhibitor, single point] | Potency (PC49) 10 µM [inhibitor, single point] | Potency (SC27B) 7.08 µM [inhibitor, single point] | Potency (TAB109) 6.31 µM [inhibitor, single point] | Potency (TAB113) 10 µM [inhibitor, single point]
active: Potency (7G8) 1 µM | Potency (CP260) 3.98 µM | Potency (ICS) 1.12 µM
